# Source: PMC12829203
# Results are given in words; binding and its absence hold for the method and conditions named. In cells and extracts the contact can be indirect. Some binding calls cover weakened binding; strength is not graded here.
# B1: FOXM1 (protein, UniProt Q08050 1-763)
# chain: MKTSPRRPLILKRRRLPLPVQNAPSETSEEEPKRSPAQQESNQAEASKEVAESNSCKFPAGIKIINHPTMPNTQVVAIPNNANIHSIITALTAKGKESGSSGPNKFILISCGGAPTQPPGLRPQTQTSYDAKRTEVTLETLGPKPAARDVNLPRPPGALCEQKRETCADGEAAGCTINNSLSNIQWLRKMSSDGLGSRSIKQEMEEKENCHLEQRQVKVEEPSRPSASWQNSVSERPPYSYMAMIQFAINSTERKRMTLKDIYTWIEDHFPYFKHIAKPGWKNSIRHNLSLHDMFVRETSANGKVSFWTIHPSANRYLTLDQVFKPLDPGSPQLPEHLESQQKRPNPELRRNMTIKTELPLGARRKMKPLLPRVSSYLVPIQFPVNQSLVLQPSVKVPLPLAASLMSSELARHSKRVRIAPKVLLAEEGIAPLSSAGPGKEEKLLFGEGFSPLLPVQTIKEEEIQPGEEMPHLARPIKVESPPLEEWPSPAPSFKEESSHSWEDSSQSPTPRPKKSYSGLRSPTRCVSEMLVIQHRERRERSRSRRKQHLLPPCVDEPELLFSEGPSTSRWAAELPFPADSSDPASQLSYSQEVGGPFKTPIKETLPISSTPSKSVLPRTPESWRLTPPAKVGGLDFSPVQTSQGASDPLPDPLGLMDLSTTPLQSAPPLESPQRLLSSEPLDLISVPFGNSSPSDIDVPKPGSPEPQVSGLAANRSLTEGLVLDTMNDSLSKILLDISFPGLDEDPLGPDNINWSQFIPELQ
# Target: CHEK2 (human (endogenous in A549)) (UniProt O96017)
# Assay: co-IP; A549 cell lysates in lysis buffer with protease inhibitors; immunoprecipitation of endogenous proteins with rabbit anti-KPNA2, anti-CHEK2 or anti-FOXM1 antibody (anti-IgG as control), eluates analysed by Western blot
binder,measurement,value
B1,binding,binds
